# Screening data

From PubChem BioAssay record AID1053133 (Broad Institute, 2014).

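Vaccinia-infected cells with a two-color viral stage reporter; Venus fluorescence read on a plate reader; the cell line is not named here; timing not stated here.
The test concentration is not given here.
Percent change in Venus reporter signal; lower (more negative) values mean stronger inhibition of that viral stage.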

Values are in %.
The controls that fix the scale are not given here.
Common to all entries: measured here: Venus reporter, other viral stage.
Part of the compounds only, not a random draw; the main read-out is not listed here.

SMILES: COc1ccc(NC(=O)N2CC(=O)N3[C@H](CO)[C@@H](c4ccc(C#CCC5CCCC5)cc4)[C@H]3C2)cc1
activity change (Venus) (%): -46.36

SMILES: Cc1ccc(-c2ccc3c(c2)O[C@H](CN(C)C(=O)Nc2ccc(F)cc2)[C@@H](C)CN([C@@H](C)CO)S3(=O)=O)cc1
activity change (Venus) (%): -58.69

SMILES: C[C@@H]1CN([C@H](C)CO)C(=O)c2c(c3ccccc3n2C)-c2ccccc2CO[C@@H]1CN(C)S(=O)(=O)c1ccc(C(F)(F)F)cc1
activity change (Venus) (%): -44.52

SMILES: CO[C@@H]1CN(C)C(=O)c2cc(NC(=O)Nc3cccc(Cl)c3)ccc2OC[C@@H](C)NC[C@H]1C
activity change (Venus) (%): -15.08

SMILES: C[C@H](CO)N1C[C@H](C)[C@H](CN(C)Cc2ccc(Cl)c(Cl)c2)Oc2c(NS(=O)(=O)c3ccc(F)cc3)cccc2C1=O
activity change (Venus) (%): -39.89

SMILES: C[C@H]1CCCCO[C@@H](CN(C)Cc2ccc3c(c2)OCO3)[C@@H](C)CN([C@@H](C)CO)C(=O)c2cc(NC(=O)Nc3ccc4c(c3)OCO4)ccc2O1
activity change (Venus) (%): -42.32

SMILES: C[C@H](CO)N1C[C@H](C)[C@@H](CN(C)CC2CCCCC2)Oc2c(NC(=O)c3ccc(-c4nccs4)cc3)cccc2C1=O
activity change (Venus) (%): -28.86

SMILES: C[C@@H]1CN([C@@H](C)CO)C(=O)Cc2cc(NC(=O)CCCN(C)C)ccc2O[C@H]1CN(C)Cc1ccc(Oc2ccccc2)cc1
activity change (Venus) (%): -41.69

SMILES: Cc1cccc(S(=O)(=O)N(C)C[C@@H]2OCc3ccccc3-c3c(n(C)c4ccccc34)C(=O)N([C@H](C)CO)C[C@@H]2C)c1
activity change (Venus) (%): -45.5

SMILES: OC[C@@H]1[C@H](c2ccc(C3=CCCCC3)cc2)[C@@H]2CN(CCC(F)(F)F)CCCCN12
activity change (Venus) (%): -56.77

SMILES: C[C@@H]1CN([C@H](C)CO)C(=O)c2cc(C#Cc3cccc(F)c3)cnc2O[C@H]1CN(C)C(=O)C1CCCCC1
activity change (Venus) (%): -45.91

SMILES: C/C=C/c1ccc2c(c1)O[C@@H](CN(C)Cc1cccc(F)c1)[C@@H](C)CN([C@H](C)CO)S2(=O)=O
activity change (Venus) (%): -38.54

SMILES: COc1ccc(S(=O)(=O)Nc2ccc3c(c2)C(=O)N([C@@H](C)CO)C[C@H](C)[C@@H](CN(C)Cc2ccc4c(c2)OCO4)OCCCC[C@H](C)O3)cc1
activity change (Venus) (%): -52.15

SMILES: CN1c2ccc(-c3ccccc3)cc2[C@H]2[C@H](CCN2C(=O)Cc2ccccc2)[C@H]1CO
activity change (Venus) (%): -54.2

SMILES: CC(C)CC#Cc1ccc2c(c1)O[C@@H](CN(C)S(=O)(=O)c1ccc(F)cc1)[C@@H](C)CN([C@H](C)CO)S2(=O)=O
activity change (Venus) (%): -30.08

SMILES: COCC(=O)N1CC2(CCN(Cc3ccccc3Cl)CC2)c2c([nH]c3cc(OC)ccc23)[C@H]1CO
activity change (Venus) (%): -57.26

SMILES: CC(C)C#Cc1ccc2c(c1)O[C@H](CN(C)C(=O)c1ccccc1)[C@@H](C)CN([C@H](C)CO)S2(=O)=O
activity change (Venus) (%): -35.78

SMILES: C[C@H]1CN([C@@H](C)CO)S(=O)(=O)c2ccc(-c3ccccc3)cc2O[C@H]1CN(C)C(=O)C1CCCCC1
activity change (Venus) (%): -39.01

SMILES: CCC(=O)N1CCCCN2[C@@H](CO)[C@@H](c3ccc(/C=C/c4ccccc4)cc3)[C@@H]2C1
activity change (Venus) (%): -72.33

SMILES: CCCNC(=O)N(C)C[C@@H]1Oc2cc(C#Cc3cccc(F)c3)ccc2S(=O)(=O)N([C@H](C)CO)C[C@@H]1C
activity change (Venus) (%): -35.72

SMILES: C[C@@H]1CN([C@@H](C)CO)C(=O)Cc2cc(NS(=O)(=O)c3ccc(Cl)cc3)ccc2O[C@@H]1CN(C)CC1CCCCC1
activity change (Venus) (%): -46.28

SMILES: O=C(C1CCOCC1)N1CC(=O)N2[C@H](CO)[C@@H](c3ccc(C#CC4CCCCC4)cc3)[C@@H]2C1
activity change (Venus) (%): -39.22

SMILES: Cc1noc(C)c1S(=O)(=O)N(C)C[C@H]1OCCCC[C@H](C)Oc2ccc(NS(=O)(=O)c3ccc(Cl)cc3)cc2C(=O)N([C@H](C)CO)C[C@@H]1C
activity change (Venus) (%): -26.51

SMILES: CO[C@@H]1CN(C)C(=O)c2cc(NC(=O)Nc3ccc(Cl)cc3)ccc2OC[C@@H](C)NC[C@@H]1C
activity change (Venus) (%): -35.14

SMILES: COc1ccccc1C#Cc1ccc([C@H]2[C@@H](CO)N3CCCCN(S(C)(=O)=O)C[C@H]23)cc1
activity change (Venus) (%): -49.32

SMILES: COc1ccc(NC(=O)N2CCCCN3[C@H](CO)[C@H](c4ccc(-c5ccccc5C)cc4)[C@H]3C2)cc1
activity change (Venus) (%): -78.89

SMILES: C[C@@H]1CN([C@@H](C)CO)C(=O)c2cc(NC(=O)Nc3ccc(C(F)(F)F)cc3)ccc2O[C@H]1CN(C)Cc1ccc(Cl)c(Cl)c1
activity change (Venus) (%): -47.15

SMILES: COc1ccc2c3c([nH]c2c1)[C@@H](CO)N(C(=O)Nc1cccc(F)c1)CC31CCN(CC2CC2)CC1
activity change (Venus) (%): -40.46

SMILES: CC(C)CC#Cc1cnc2c(c1)C(=O)N([C@H](C)CO)C[C@H](C)[C@H](CN(C)C(=O)Nc1cccc(F)c1)O2
activity change (Venus) (%): -34.93

SMILES: O=C(Nc1cccc(F)c1)N1CC(=O)N2[C@H](CO)[C@H](c3ccc(-c4ccccc4F)cc3)[C@@H]2C1
activity change (Venus) (%): -30.25

SMILES: O=C(c1ccc(F)cc1)N1CC(=O)N2[C@H](CO)[C@H](c3ccc(C#Cc4ccc(F)cc4)cc3)[C@@H]2C1
activity change (Venus) (%): -38.68

Some entries from above, unchanged:

{"smiles": "O=C(c1ccc(F)cc1)N1CC(=O)N2[C@H](CO)[C@H](c3ccc(C#Cc4ccc(F)cc4)cc3)[C@@H]2C1", "activity change (Venus) (%)": "-38.68"}
{"smiles": "Cc1noc(C)c1S(=O)(=O)N(C)C[C@H]1OCCCC[C@H](C)Oc2ccc(NS(=O)(=O)c3ccc(Cl)cc3)cc2C(=O)N([C@H](C)CO)C[C@@H]1C", "activity change (Venus) (%)": "-26.51"}
{"smiles": "C[C@H](CO)N1C[C@H](C)[C@@H](CN(C)CC2CCCCC2)Oc2c(NC(=O)c3ccc(-c4nccs4)cc3)cccc2C1=O", "activity change (Venus) (%)": "-28.86"}
{"smiles": "CO[C@@H]1CN(C)C(=O)c2cc(NC(=O)Nc3ccc(Cl)cc3)ccc2OC[C@@H](C)NC[C@@H]1C", "activity change (Venus) (%)": "-35.14"}